PubChem BioAssay AID1224830 | NIAID, 2016

- Aim: 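Genes whose knock-down alters the TNF-alpha reporter response to LPS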 (primary screen)
- Cells: human THP-1 monocytic leukaemia cells, TNF dual-luciferase reporter clone, PMA-differentiated to macrophage-like cells
- Knock-down reagent: siRNA pool against human genes, 50 nM
- Timing: LPS for 4 h, given about 3 days after siRNA transfection
- Conditions: bacterial LPS (TLR4 ligand), 10 ng/ml
- Measurement: 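TNF firefly reporter luminescence divided by renilla, normalised to the plate median, then turned into a robust z-score for each replicate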
- Direction: TNF reporter robust z-score: higher = stronger TNF reporter response to LPS
- Rule for the call: 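Each well counts as active if its z-score is over 2.8 or under -1.5; controls are left without a call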
Shown is one part, drawn at random, of about 18,000 reagents tested. About 2,900 of them (16%) were called active. 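Calls are made per well; low scores hint the gene aids the LPS response, high scores that it dampens it.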 Unmarked entries are inactive. Repeated entries: four replicate wells of each siRNA pool.

| gene symbol | TNF reporter robust z-score |
| --- | --- |
| POLE2 | 0.51 |
| POLE2 | 1.4 |
| POLE2 | 0.26 |
| POLE2 | -0.26 |
| ARK2N | -0.18 |
| ARK2N | 0.45 |
| ARK2N | -0.54 |
| ARK2N | 0.22 |
| CCT7 | 1.09 |
| CCT7 | 0.91 |
| CCT7 | 0.42 |
| CCT7 | 1.43 |
| MME | -0.3 |
| MME | -1.08 |
| MME | -1.2 |
| MME | -0.71 |
| NOTUM | -0.74 |
| NOTUM | 0.07 |
| NOTUM | 0.71 |
| NOTUM | -0.13 |
| PATE1 | -0.76 |
| PATE1 | -0.12 |
| PATE1 | 0.56 |
| PATE1 | 0.66 |
| ATP13A4 | -0.86 |
| ATP13A4 | -1.24 |
| ATP13A4 | -1.03 |
| ATP13A4 | -1.49 |
| OR10A7 | 0.07 |
| OR10A7 | 1.47 |
| OR10A7 | -0.34 |
| MINAR1 | 0.04 |
| MINAR1 | 1.09 |
| MINAR1 | 0.94 |
| MINAR1 | 0.59 |
| TRIP6 | -0.83 |
| TRIP6 | -0.6 |
| TRIP6 | -0.61 |
| TRIP6 | -0.79 |
| HCN4 | 0.33 |
| HCN4 | 0.39 |
| HCN4 | -0.52 |
| HCN4 | 2.78 |
| ST8SIA1 | 0.85 |
| ST8SIA1 | 2.06 |
| ST8SIA1 | 3.18 (active) |
| ST8SIA1 | 0.74 |
| AMN | 0.37 |
| AMN | 0.27 |
| AMN | -1.13 |
| AMN | -0.78 |
| UBTF | -0.82 |
| UBTF | 0.56 |
| UBTF | -0.44 |
| UBTF | 0.91 |
| KIRREL2 | -0.45 |
| KIRREL2 | -1.27 |
| KIRREL2 | -1.6 (active) |
| KIRREL2 | -0.74 |
| BRS3 | 0.55 |
| BRS3 | 0.6 |
| BRS3 | -0.4 |
| BRS3 | 1.65 |
| ZNF625 | 2.72 |
| ZNF625 | 3.82 (active) |
| ZNF625 | 2.5 |
| ZNF625 | 3.69 (active) |
| ALKBH8 | 0.11 |
| ALKBH8 | -0.09 |
| ALKBH8 | -0.52 |
| ALKBH8 | 0.53 |
| ADH7 | 1.93 |
| ADH7 | 1.49 |
| ADH7 | -0.38 |
| ADH7 | 3.23 (active) |
| MAB21L3 | 0.15 |
| MAB21L3 | -0.49 |
| MAB21L3 | -1.19 |
| MAB21L3 | -0.65 |
| CDH16 | -1.04 |
| CDH16 | -0.96 |
| CDH16 | -0.83 |
| CDH16 | -0.67 |
| RIBC1 | -0.94 |
| RIBC1 | -0.17 |
| RIBC1 | -1.33 |
| RIBC1 | 0.44 |
| VPS54 | -1.34 |
| VPS54 | -1.55 (active) |
| VPS54 | -1.71 (active) |
| VPS54 | -1.57 (active) |
| CBFB | -0.83 |
| CBFB | 0.86 |
| CBFB | -0.24 |
| CBFB | 0.26 |
| EMC9 | 1.26 |
| EMC9 | 1.42 |
| EMC9 | 0.84 |
| EMC9 | -0.29 |
| COL4A4 | 3.41 (active) |
| COL4A4 | 2.55 |
| COL4A4 | 0.35 |
| COL4A4 | 3.32 (active) |
| RPL5 | -0.61 |
| RPL5 | 0.53 |
| RPL5 | -0.15 |
| RPL5 | 0 |
| TRAPPC1 | 0.17 |
| TRAPPC1 | 0.02 |
| TRAPPC1 | 0.29 |

Entries above whose gene name begins with S or s:
| gene symbol | TNF reporter robust z-score |
| --- | --- |
| ST8SIA1 | 0.85 |
| ST8SIA1 | 2.06 |
| ST8SIA1 | 3.18 (active) |
| ST8SIA1 | 0.74 |
